Assay results: paper PMC9468604
Results are given in words; binding and its absence hold for the method and conditions named. A result given as binding can be weak or reduced; the word gives no strength. Where a sequence is shown, tags or fusion partners need not be part of it.

The chains behind the UniProt entries cited, without tags or fusion partners. Where a name states a change or a piece, a line headed by the entry shows the natural chain unless it says otherwise.
UniProt Q5NBY9: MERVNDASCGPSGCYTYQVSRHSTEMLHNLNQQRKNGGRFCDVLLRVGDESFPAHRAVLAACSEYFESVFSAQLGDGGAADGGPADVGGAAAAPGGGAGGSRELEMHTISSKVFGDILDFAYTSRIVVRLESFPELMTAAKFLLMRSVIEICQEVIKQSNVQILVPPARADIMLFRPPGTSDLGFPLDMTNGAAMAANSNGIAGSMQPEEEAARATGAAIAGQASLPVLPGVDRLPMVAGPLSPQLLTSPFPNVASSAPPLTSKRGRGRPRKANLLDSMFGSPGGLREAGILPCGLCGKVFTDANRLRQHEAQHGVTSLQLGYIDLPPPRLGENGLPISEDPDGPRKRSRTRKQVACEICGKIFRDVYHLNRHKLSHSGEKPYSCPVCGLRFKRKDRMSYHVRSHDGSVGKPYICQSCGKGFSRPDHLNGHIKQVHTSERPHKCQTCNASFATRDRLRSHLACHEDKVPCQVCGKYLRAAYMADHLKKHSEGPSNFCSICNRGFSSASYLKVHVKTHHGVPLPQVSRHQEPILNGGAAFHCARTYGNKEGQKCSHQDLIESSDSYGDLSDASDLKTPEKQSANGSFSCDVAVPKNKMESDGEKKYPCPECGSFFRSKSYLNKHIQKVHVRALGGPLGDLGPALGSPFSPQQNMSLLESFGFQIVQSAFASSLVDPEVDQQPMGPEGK

Molecular target: PATZ1 BTB domain with C-terminal tagGFP (BTB-tagGFP) (mouse) (UniProt Q5NBY9)
Assay: two-hybrid; fluorescent two-hybrid (F2H) in live BHK-1 cells with a genomic LacO array; the tagGFP-BTB fusion is held at the LacO focus by GBP-LacI, a co-localised focus of the tagRFP-BTB fusion is scored by fluorescence microscopy 24 h after transfection; colocalization = percentage of GFP foci-positive cells also positive for RFP foci

B1: PATZ2 BTB domain (NLS-tagGFP-BTB or tagRFP-BTB fusion) (domain or fragment, UniProt O43167 10-133)
chain: GQLVVHSDAHSDTVLASFEDQRKKGFLCDITLIVENVHFRAHKALLAASSEYFSMMFAEEGEIGQSIYMLEGMVADTFGILLEFIYTGYLHASEKSTEQILATAQFLKVYDLVKAYTDFQNNHS
- binding: binds
